Here are results for two substances from paper PMC12283023.

No constants are given. Whether binding was seen depends on the method and setting. Binding seen in cells or lysates may run through a third protein. Some results given as binding are weak or reduced against the parent protein; the word gives no strength.

Test [1] concerns the target Flag-tagged SQSTM1/p62 expressed in HEK293T cells (human) (UniProt Q13501). The test can be described thus: co-IP; HEK293T cells co-transfected with tagged or untagged SQSTM1, HA-CDKN1A or HA-CDKN2A and MYC- or Flag-MAP1LC3, in the presence of baf-A1; IP by Flag, SQSTM1 or HA.
Test [2] deals with untagged SQSTM1/p62 expressed in HEK293T cells (human) (UniProt Q13501). Described as above.

“HA-tagged CDKN1A/p21 expressed in HEK293T cells (from UniProt P38936 1-164)”: the binding entry in test [1] and in test [2] was “binds” throughout.
Regarding “HA-tagged CDKN2A/p16 expressed in HEK293T cells (from UniProt P42771 1-156)”, the binding entry in test [1] and in test [2] was “binds” each time.
